Reference: paper doi:10.1101/2022.12.14.520376
No constants are given. Whether binding was seen depends on the method and setting. In cells and extracts the contact can be indirect. Some binding calls cover weakened binding; strength is not graded here.

Amino acid sequences for entries named in this document (tags omitted). Residues count along the entry.
UniProt P10721, residues 26-976: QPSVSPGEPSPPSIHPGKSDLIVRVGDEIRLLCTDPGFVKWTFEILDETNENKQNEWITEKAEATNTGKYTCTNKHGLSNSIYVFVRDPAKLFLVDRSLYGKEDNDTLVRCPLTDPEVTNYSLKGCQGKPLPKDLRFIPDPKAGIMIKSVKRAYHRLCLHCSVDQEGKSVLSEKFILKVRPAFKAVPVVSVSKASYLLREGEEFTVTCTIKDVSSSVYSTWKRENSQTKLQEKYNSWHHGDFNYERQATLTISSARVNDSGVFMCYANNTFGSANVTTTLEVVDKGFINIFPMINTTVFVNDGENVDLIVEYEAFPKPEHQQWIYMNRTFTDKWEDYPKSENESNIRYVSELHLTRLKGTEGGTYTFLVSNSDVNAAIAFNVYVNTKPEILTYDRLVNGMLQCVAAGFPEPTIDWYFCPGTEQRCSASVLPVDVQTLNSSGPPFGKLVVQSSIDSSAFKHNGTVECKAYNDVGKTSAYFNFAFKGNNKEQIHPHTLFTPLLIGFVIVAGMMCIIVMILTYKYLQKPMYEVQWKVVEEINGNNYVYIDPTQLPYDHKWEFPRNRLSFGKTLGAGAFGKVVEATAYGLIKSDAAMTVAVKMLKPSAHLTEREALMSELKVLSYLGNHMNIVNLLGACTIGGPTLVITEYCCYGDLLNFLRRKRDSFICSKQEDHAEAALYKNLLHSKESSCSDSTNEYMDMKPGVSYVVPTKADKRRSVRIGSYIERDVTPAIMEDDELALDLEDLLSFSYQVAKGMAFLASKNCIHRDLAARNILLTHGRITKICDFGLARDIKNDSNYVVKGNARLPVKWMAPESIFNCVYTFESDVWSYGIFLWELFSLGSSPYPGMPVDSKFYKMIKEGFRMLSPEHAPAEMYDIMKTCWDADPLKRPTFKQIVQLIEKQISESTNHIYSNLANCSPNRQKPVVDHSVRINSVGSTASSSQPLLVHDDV
UniProt P29279, residues 27-349: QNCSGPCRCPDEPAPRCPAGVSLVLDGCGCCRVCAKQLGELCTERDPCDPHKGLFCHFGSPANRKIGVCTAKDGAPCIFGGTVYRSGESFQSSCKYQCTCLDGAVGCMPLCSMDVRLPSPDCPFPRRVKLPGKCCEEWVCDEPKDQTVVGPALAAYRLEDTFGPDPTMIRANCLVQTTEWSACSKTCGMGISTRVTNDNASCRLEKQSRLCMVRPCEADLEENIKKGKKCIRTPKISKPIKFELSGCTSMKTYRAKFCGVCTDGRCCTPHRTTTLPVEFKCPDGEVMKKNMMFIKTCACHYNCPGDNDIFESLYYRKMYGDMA

Biological target: Flag-KIT (human) (UniProt P10721)
Test: co-IP

HA-CTGF (connective tissue growth factor) (from UniProt P29279 27-349)
binding: binds
